Our source for the binding values is publication PMC12331172.

Sequences of proteins named here, by UniProt entry; tags and fusion partners are left off.
UniProt P08736: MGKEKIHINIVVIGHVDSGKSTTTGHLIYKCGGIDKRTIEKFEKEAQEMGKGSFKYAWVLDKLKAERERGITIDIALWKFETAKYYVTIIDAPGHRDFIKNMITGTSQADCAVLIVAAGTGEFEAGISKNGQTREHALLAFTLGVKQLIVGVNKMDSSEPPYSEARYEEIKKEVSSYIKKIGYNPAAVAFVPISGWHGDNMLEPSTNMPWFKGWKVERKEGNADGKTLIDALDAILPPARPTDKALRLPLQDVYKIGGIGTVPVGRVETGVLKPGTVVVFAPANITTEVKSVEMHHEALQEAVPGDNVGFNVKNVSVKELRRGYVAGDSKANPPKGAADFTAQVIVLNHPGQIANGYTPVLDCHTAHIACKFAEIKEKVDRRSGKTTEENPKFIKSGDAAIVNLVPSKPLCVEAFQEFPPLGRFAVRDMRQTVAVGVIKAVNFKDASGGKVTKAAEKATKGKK

Results are given in words; binding and its absence hold for the method and conditions named. Binding seen in cells or lysates may run through a third protein. A yes stands for co-enrichment or nearness to the bait. Other partners may have been found. No binding means not detected with the bait. Sequences can lack the tags named with a protein.

T1: TAP-Trus fusion protein (Toys are us, Drosophila orthologue of PDCD2L) (Drosophila melanogaster) (UniProt Q9VG62)
T1 sequence: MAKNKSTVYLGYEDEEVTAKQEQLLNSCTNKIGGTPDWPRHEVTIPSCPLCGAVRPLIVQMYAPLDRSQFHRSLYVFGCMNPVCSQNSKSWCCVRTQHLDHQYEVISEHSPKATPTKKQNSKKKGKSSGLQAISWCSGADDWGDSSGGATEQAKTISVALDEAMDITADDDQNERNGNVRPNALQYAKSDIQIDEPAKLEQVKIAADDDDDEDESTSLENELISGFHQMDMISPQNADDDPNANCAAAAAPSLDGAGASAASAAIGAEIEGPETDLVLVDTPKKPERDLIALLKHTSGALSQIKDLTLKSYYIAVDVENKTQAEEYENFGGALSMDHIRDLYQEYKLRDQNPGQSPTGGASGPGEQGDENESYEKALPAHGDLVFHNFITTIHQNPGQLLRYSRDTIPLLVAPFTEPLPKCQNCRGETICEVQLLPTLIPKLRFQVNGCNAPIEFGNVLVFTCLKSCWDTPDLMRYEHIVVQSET

B1: Zfrp8 (Zinc finger protein RP-8), Drosophila orthologue of PDCD2 (protein, UniProt Q9W1A3 1-347)
chain: MEIDLGFAEKSDNGAWLSNRYFPSKLGGQPAWLELEALPPTSQLQCSKCRAPKSFLAQLYAPFEDEYNFHRSIYVFLCRNSDCQEAQNASNFTVLRSQLPRKNKFFSEEEPSDVGQPLPAVPCLKKLCAACGCHAPHACSKCKAIHYCSPEHQRAHWPQHKPNCGAPEVATEKPLTQIVFPEFEIVMDSNPVESGEEDKDDEARLAEFQELESSGKTGDLSNVSEAEMDKYFGNSAAADDKTFRQFKKQTAAEPDQIVRYKRGGQPLWITNTVKTVEDQLNKLPNCIACGGERQFEFQIMPQALTLLEDENLDWGVLAVYTCAKSCPIDGYVEELLIKQDIVAEDQS

The experiment has as its target T1, TAP-Trus fusion protein (Toys are us, Drosophila orthologue of PDCD2L) (Drosophila melanogaster). The experiment is described as follows: affinity purification with mass spectrometry; TAP-Trus stably expressed in Drosophila Kc cells (one liter); tandem affinity purification on IgG-Sepharose and Calmodulin-Sepharose beads; eluate TCA-precipitated, SDS-PAGE, Coomassie bands excised, trypsinized, MALDI mass spectrometry.
For the molecule “String of pearls (Sop), protein S2 of the 40S ribosomal subunit (RpS2) (from UniProt P31009 1-267)”, the binding result is “binds”.
Next, “eukaryotic translation Elongation Factor 1 alpha 1 (eEF1α1) (from UniProt P08736 1-463)”: “binds”.
Turning to B1, the binding entry is on record as “no binding”.
